Data as given in PubChem BioAssay AID743448 (Peter MacCallum Cancer Centre, 2014).
Test: 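Test whether knock-downs sensitising to vorinostat hold across several colon lines but not etoposide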 (follow-up of hits). Cell system: four human colon cancer cell lines: HCT116-VR (vorinostat-resistant HCT116 derivative), SW480, SW620 and LIM1215. Reagents: siRNA pool against human genes, 40 nM siRNA pool. Timing: drug added two days after transfection, read one day later. Treatment: vorinostat 2.5 µM on one half of each plate, etoposide 5 µM on the other half. Cell line and drug panel: vorinostat-resistant HCT116 cells with etoposide. Measurement: 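Caspase 3/7 activity by luminescence and live-cell viability by fluorescence, each given as a ratio to mock-transfected wells and as a robust z-score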. Scale: caspase ratio to mock: higher = more caspase activity than mock; viability ratio to mock: higher = more live cells than mock; caspase robust z-score: higher = more caspase activity, more apoptosis; viability robust z-score: higher = more live cells. Call rule: 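a row is a hit if caspase relative to mock is 1.6 or above or viability relative to mock is 0.75 or below; wells dying heavily without drug are not called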. Calls: active = caspase or viability hit in this panel; inactive = no change, or unhealthy well.
This is an unselected part of the 106 reagents, under one of the conditions tested. 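Calls are per line and drug panel including etoposide, not vorinostat-specific; gene picks needed hits in two or more extra lines with vorinostat versus etoposide.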

The first 3 records, ahead of the listing:
| Gene | PubChem SID | caspase ratio to mock | viability ratio to mock | caspase robust z-score | viability robust z-score | activity call |
| --- | --- | --- | --- | --- | --- | --- |
| ZNF441 (GeneID 126068) | SID134320882 | 1.02 | 0.97 | -0.9 | 0.24 | inactive |
| KIR2DL1 (GeneID 3802) | SID135624029 | 1.29 | 1.21 | -0.57 | 1.65 | inactive |
| LBHD1 (GeneID 79081) | SID152153391 | 1.28 | 1.06 | -0.6 | 0.76 | inactive |

The list itself, from the start:
| Gene | PubChem SID | caspase ratio to mock | viability ratio to mock | caspase robust z-score | viability robust z-score | activity call |
| --- | --- | --- | --- | --- | --- | --- |
| ZNF441 (GeneID 126068) | SID134320882 | 1.02 | 0.97 | -0.9 | 0.24 | inactive |
| KIR2DL1 (GeneID 3802) | SID135624029 | 1.29 | 1.21 | -0.57 | 1.65 | inactive |
| LBHD1 (GeneID 79081) | SID152153391 | 1.28 | 1.06 | -0.6 | 0.76 | inactive |
| AKAP8 (GeneID 10270) | SID56479229 | 1.72 | 0.92 | 0.01 | 0.01 | active |
| NUP205 (GeneID 23165) | SID152152395 | 3.13 | 0.58 | 1.86 | -2.06 | active |
| GLI1 (GeneID 2735) | SID134310142 | 1.35 | 1.02 | -0.48 | 0.62 | inactive |
| INTS6L (GeneID 203522) | SID152154800 | 1.21 | 0.96 | -0.7 | 0.18 | inactive |
| PCP4 (GeneID 5121) | SID134323861 | 2.75 | 0.82 | 1.35 | -0.6 | active |
| AP5S1 (GeneID 55317) | SID134324840 | 1.04 | 0.77 | -0.9 | -0.98 | inactive |
| CDK10 (GeneID 8558) | SID152152801 | 1.19 | 1.01 | -0.7 | 0.52 | inactive |
| CAPN12 (GeneID 147968) | SID134311229 | 1.9 | 0.84 | 0.23 | -0.5 | active |
| ANO9 (GeneID 338440) | SID135624594 | 1.09 | 1.03 | -0.84 | 0.55 | inactive |
| PSMA7 (GeneID 5688) | SID134310318 | 3.35 | 0.57 | 2.19 | -2.16 | active |
| PRRT3 (GeneID 285368) | SID152150037 | 1.44 | 1.06 | -0.36 | 0.82 | inactive |
| DNTTIP2 (GeneID 30836) | SID152146868 | 0.78 | 0.73 | -1.25 | -1.21 | active |
| LAD1 (GeneID 3898) | SID134321180 | 1.84 | 1.09 | 0.14 | 0.98 | active |
| PSMD13 (GeneID 5719) | SID135622112 | 1.23 | 0.96 | -0.66 | 0.2 | inactive |
| CSE1L (GeneID 1434) | SID135620825 | 3.6 | 0.99 | 2.4 | 0.32 | active |
| BEGAIN (GeneID 57596) | SID134318275 | 1.23 | 0.94 | -0.64 | 0.06 | inactive |
| SERTAD1 (GeneID 29950) | SID135623986 | 2.69 | 0.94 | 1.28 | 0 | active |
| HPCAL1 (GeneID 3241) | SID134321360 | 1.4 | 0.98 | -0.43 | 0.28 | inactive |
| THAP1 (GeneID 55145) | SID135624170 | 1.44 | 1.09 | -0.36 | 0.97 | inactive |
| OR6T1 (GeneID 219874) | SID135624576 | 2.15 | 1 | 0.55 | 0.44 | active |
| ANKRD13C-DT (GeneID 11147) | SID152152825 | 2.15 | 0.82 | 0.56 | -0.58 | active |
| GATA1 (GeneID 2623) | SID134314339 | 1.47 | 1.06 | -0.33 | 0.84 | inactive |
| CNOT3 (GeneID 4849) | SID134324038 | 3.17 | 1 | 1.88 | 0.45 | active |
| PSMD4 (GeneID 5710) | SID152147605 | 2.2 | 1.04 | 0.62 | 0.66 | active |
| NFYA (GeneID 4800) | SID134313982 | 1.23 | 1.06 | -0.64 | 0.82 | inactive |
